Reference: patent publication US9560850B2, “Tetrazolinone compound and use thereof” (SUMITOMO CHEMICAL COMPANY, LIMITED, priority 2012, dated 2017)
Some of these results come from one statement about several compounds together.

Legend:
Type in all cases: in vivo
Pyrenophora teres = test: Barley net blotch control test, foliar spray on barley (Test Examples 3, 9); settings: barley (Mikamo Golden), inoculated 2 days after application
Sclerotinia sclerotiorum = test: Kidney bean Sclerotinia control test, foliar spray (Test Examples 4, 10); settings: kidney bean (Nagauzura Saito), examined 4 days after inoculation
Septoria tritici = test: Wheat Septoria control test, foliar spray on wheat (Test Examples 5, 11); settings: wheat (Apogee), inoculated 4 days after application
Rhynchosporium secalis = test: Barley scald control test, foliar spray on barley (Test Example 14); settings: 200 ppm, barley (Mikamo Golden), inoculated 2 days after application
Sphaerotheca fuliginea = test: Cucumber powdery mildew control test, foliar spray (Test Examples 6, 12); settings: cucumber (Sagami hanjiro), examined after 8 days
Phakopsora pachyrhizi = test: Soybean rust control test, foliar spray on soybean (Test Example 13); settings: 200 ppm, soybean (Kurosengoku), inoculated 2 days after application

Measured: infected area of the treated plant relative to that of the untreated plant

C#CCON=C(C)c1ccc(OCc2c(C)cccc2-n2nnn(C)c2=O)c(C)c1 [Compound 30, 1-{2-[2-methyl-4-(1-propargyloxyimino-ethyl)-phenoxymethyl]-3-methyl-phenyl}-4-methyl-1,4-dihydrotetrazol-5-one]
≤ 30%: Pyrenophora teres; Test Example 3, 500 ppm | Pyrenophora teres; Test Example 9, 200 ppm | Sclerotinia sclerotiorum; Test Example 4, 500 ppm | Sclerotinia sclerotiorum; Test Example 10, 200 ppm | Septoria tritici; Test Example 5, 500 ppm | Septoria tritici; Test Example 11, 200 ppm | Rhynchosporium secalis | Sphaerotheca fuliginea; Test Example 6, 500 ppm | Sphaerotheca fuliginea; Test Example 12, 200 ppm

CON=C(C)c1ccc(OCc2c(Br)cccc2-n2nnn(C)c2=O)c(C)c1 [Compound 43, 1-{2-[2-methyl-4-(1-methoxyimino-ethyl)phenoxymethyl]-3-bromo-phenyl}-4-methyl-1,4-dihydrotetrazol-5-one]
≤ 30%: Pyrenophora teres; Test Example 3, 500 ppm | Pyrenophora teres; Test Example 9, 200 ppm | Sclerotinia sclerotiorum; Test Example 4, 500 ppm | Sclerotinia sclerotiorum; Test Example 10, 200 ppm | Septoria tritici; Test Example 5, 500 ppm | Septoria tritici; Test Example 11, 200 ppm | Rhynchosporium secalis | Sphaerotheca fuliginea; Test Example 6, 500 ppm | Sphaerotheca fuliginea; Test Example 12, 200 ppm

CON=C(C)c1cc(C)c(OCc2c(C)cccc2-n2nnn(C)c2=O)cc1C [Compound 48, 1-{2-[2,5-dimethyl-4-(1-methoxyimino-ethyl)-phenoxymethyl]-3-methyl-phenyl}-4-methyl-1,4-dihydrotetrazol-5-one]
≤ 30%: Pyrenophora teres; Test Example 3, 500 ppm | Pyrenophora teres; Test Example 9, 200 ppm | Sclerotinia sclerotiorum; Test Example 4, 500 ppm | Sclerotinia sclerotiorum; Test Example 10, 200 ppm | Septoria tritici; Test Example 5, 500 ppm | Septoria tritici; Test Example 11, 200 ppm | Rhynchosporium secalis | Sphaerotheca fuliginea; Test Example 6, 500 ppm | Sphaerotheca fuliginea; Test Example 12, 200 ppm

CON=C(c1ccc(OCc2c(C)cccc2-n2nnn(C)c2=O)c(C)c1)C1CC1 [Compound 53, 1-{2-[2-methyl-4-(1-methoxyimino-1-cyclopropyl-methyl)-phenoxymethyl]-3-methyl-phenyl}-4-methyl-1,4-dihydrotetrazol-5-one]
≤ 30%: Phakopsora pachyrhizi | Pyrenophora teres; Test Example 3, 500 ppm | Pyrenophora teres; Test Example 9, 200 ppm | Septoria tritici; Test Example 5, 500 ppm | Septoria tritici; Test Example 11, 200 ppm | Rhynchosporium secalis

CON=C(c1ccc(OCc2c(OC)cccc2-n2nnn(C)c2=O)c(C)c1)C1CC1 [Compound 54, 1-{2-[2-methyl-4-(1-methoxyimino-1-cyclopropyl-methyl)-phenoxymethyl]-3-methoxy-phenyl}-4-methyl-1,4-dihydrotetrazol-5-one]
≤ 30%: Phakopsora pachyrhizi | Pyrenophora teres; Test Example 3, 500 ppm | Pyrenophora teres; Test Example 9, 200 ppm | Septoria tritici; Test Example 5, 500 ppm | Septoria tritici; Test Example 11, 200 ppm | Rhynchosporium secalis

CON=C(c1ccc(OCc2c(C3CC3)cccc2-n2nnn(C)c2=O)c(C)c1)C1CC1 [Compound 55, 1-{2-[2-methyl-4-(1-methoxyimino-1-cyclopropyl-methyl)-phenoxymethyl]-3-cyclopropyl-phenyl}-4-methyl-1,4-dihydrotetrazol-5-one]
≤ 30%: Phakopsora pachyrhizi | Pyrenophora teres; Test Example 3, 500 ppm | Pyrenophora teres; Test Example 9, 200 ppm | Septoria tritici; Test Example 5, 500 ppm | Septoria tritici; Test Example 11, 200 ppm | Rhynchosporium secalis

CCC(=NOC)c1ccc(OCc2c(C)cccc2-n2nnn(C)c2=O)c(C)c1 [Compound 56, 1-{2-[2-methyl-4-(1-methoxyimino-propyl)-phenoxymethyl]-3-methyl-phenyl}-4-methyl-1,4-dihydrotetrazol-5-one]
≤ 30%: Phakopsora pachyrhizi | Pyrenophora teres; Test Example 3, 500 ppm | Pyrenophora teres; Test Example 9, 200 ppm | Septoria tritici; Test Example 5, 500 ppm | Septoria tritici; Test Example 11, 200 ppm | Rhynchosporium secalis

CCC(=NOC)c1ccc(OCc2c(OC)cccc2-n2nnn(C)c2=O)c(C)c1 [Compound 57, 1-{2-[2-methyl-4-(1-methoxyimino-propyl)-phenoxymethyl]-3-methoxy-phenyl}-4-methyl-1,4-dihydrotetrazol-5-one]
≤ 30%: Phakopsora pachyrhizi | Pyrenophora teres; Test Example 3, 500 ppm | Pyrenophora teres; Test Example 9, 200 ppm | Septoria tritici; Test Example 5, 500 ppm | Septoria tritici; Test Example 11, 200 ppm | Rhynchosporium secalis

CCC(=NOC)c1ccc(OCc2c(C3CC3)cccc2-n2nnn(C)c2=O)c(C)c1 [Compound 58, 1-{2-[2-methyl-4-(1-methoxyimino-propyl)-phenoxymethyl]-3-cyclopropyl-phenyl}-4-methyl-1,4-dihydrotetrazol-5-one]
≤ 30%: Phakopsora pachyrhizi | Pyrenophora teres; Test Example 3, 500 ppm | Pyrenophora teres; Test Example 9, 200 ppm | Septoria tritici; Test Example 5, 500 ppm | Septoria tritici; Test Example 11, 200 ppm | Rhynchosporium secalis

CON=C(CC(C)(C)C)c1ccc(OCc2c(C)cccc2-n2nnn(C)c2=O)c(C)c1 [Compound 59, 1-{2-[2-bromo-4-(1-methoxyimino-3,3-dimethyl-butyl)-phenoxymethyl]-3-methyl-phenyl}-4-methyl-1,4-dihydrotetrazol-5-one]
≤ 30%: Phakopsora pachyrhizi | Pyrenophora teres; Test Example 3, 500 ppm | Pyrenophora teres; Test Example 9, 200 ppm | Septoria tritici; Test Example 5, 500 ppm | Septoria tritici; Test Example 11, 200 ppm | Rhynchosporium secalis

CON=C(CC(C)(C)C)c1ccc(OCc2c(C3CC3)cccc2-n2nnn(C)c2=O)c(C)c1 [Compound 61, 1-{2-[2-bromo-4-(1-methoxyimino-3,3-dimethyl-butyl)-phenoxymethyl]-3-cyclopropyl-phenyl}-4-methyl-1,4-dihydrotetrazol-5-one]
≤ 30%: Phakopsora pachyrhizi | Pyrenophora teres; Test Example 3, 500 ppm | Pyrenophora teres; Test Example 9, 200 ppm | Septoria tritici; Test Example 5, 500 ppm | Septoria tritici; Test Example 11, 200 ppm | Rhynchosporium secalis

CON=C(c1ccccc1)c1ccc(OCc2c(C)cccc2-n2nnn(C)c2=O)c(C)c1 [Compound 62, 1-{2-[2-methyl-4-(1-methoxyimino-1-phenyl-methyl)-phenoxymethyl]-3-methyl-phenyl}-4-methyl-1,4-dihydrotetrazol-5-one]
≤ 30%: Phakopsora pachyrhizi | Pyrenophora teres; Test Example 3, 500 ppm | Pyrenophora teres; Test Example 9, 200 ppm | Septoria tritici; Test Example 5, 500 ppm | Septoria tritici; Test Example 11, 200 ppm | Rhynchosporium secalis

CON=C(c1ccc(OCc2c(C)cccc2-n2nnn(C)c2=O)c(C)c1)C(C)C [Compound 63, 1-{2-[2-methyl-4-(1-methoxyimino-2-methyl-propyl)-phenoxymethyl]-3-methyl-phenyl}-4-methyl-1,4-dihydrotetrazol-5-one]
≤ 30%: Phakopsora pachyrhizi | Pyrenophora teres; Test Example 3, 500 ppm | Pyrenophora teres; Test Example 9, 200 ppm | Septoria tritici; Test Example 5, 500 ppm | Septoria tritici; Test Example 11, 200 ppm | Rhynchosporium secalis

CON=C(c1ccc(OCc2c(OC)cccc2-n2nnn(C)c2=O)c(C)c1)C(C)C [Compound 64, 1-{2-[2-methyl-4-(1-methoxyimino-2-methyl-propyl)-phenoxymethyl]-3-methoxy-phenyl}-4-methyl-1,4-dihydrotetrazol-5-one]
≤ 30%: Phakopsora pachyrhizi | Pyrenophora teres; Test Example 3, 500 ppm | Pyrenophora teres; Test Example 9, 200 ppm | Septoria tritici; Test Example 5, 500 ppm | Septoria tritici; Test Example 11, 200 ppm | Rhynchosporium secalis
